The campaign covered roughly 410,000 compounds. About 2,000 (0.49%) were called active. This list was built around the results that the source calls inconclusive (neither active nor inactive); the mix of calls is not that of the screen. The call rests on the fitted dose curve; tested in HEK293 reporter line. Where the call is inconclusive, the potency comes from a doubtful curve fit.
Assay: qHTS Assay for Foot and Mouth Disease Virus Antivirals: Primary Screen against the MLPCN compound library; further: nearly all actives have a fitted effect of over 55% in size
Settings: FMDV antiviral cell-based qHTS; activity, negative = inhibition: at 57.9 µM (top of the series)
Potency means the concentration at half of the fitted maximal effect.

| SMILES | Potency | activity, negative = inhibition |
| --- | --- | --- |
| Cc1ccc(Oc2cc(NN3CCCCC3)c([N+](=O)[O-])cc2[N+](=O)[O-])c([N+](=O)[O-])c1 | inconclusive: 3.98 µM [inhibitor, partial curve, poor fit] |  |
| CCCCCCC[C@@H](C/C=C/CCC(=O)N(C)C/C(=C/Cl)C/C(=C\C(=O)N1C[C@H](O)CC1=O)OC)OC | inconclusive: 31.6 µM [inhibitor, partial curve, poor fit] |  |
| CCCCn1nnnc1C(CCc1ccccc1)N1CCC(n2c(=O)[nH]c3ccccc32)CC1 (stereo not given) | inconclusive: 20 µM [inhibitor, partial curve, poor fit] |  |
| O=C(Nc1ccc2c(c1)nc1n2CCSC1)c1ccco1 | inconclusive: 11.2 µM [inhibitor, single point] |  |
| Cc1cccn2cc(-c3cc4ccccc4oc3=O)nc12 | inconclusive: 14.1 µM [inhibitor, partial curve] |  |
| COc1cccc(C(=O)Nc2nnc(SCC(=O)Nc3ccc(NC(C)=O)cc3)s2)c1 | inconclusive: 17.8 µM [inhibitor, single point] |  |
| CN(C)c1ccc(/C=N/N=C/c2ccccc2O)cc1 | inconclusive: 10 µM [inhibitor, partial curve, poor fit] |  |
| O=C(NCc1nnc(SCc2ccccc2)n1-c1ccc(F)cc1)C12CC3CC(CC(C3)C1)C2 | inconclusive: 25.1 µM [inhibitor, single point] |  |
| Cn1cnc([N+](=O)[O-])c1S(=O)(=O)Oc1cccc2ccccc12 | inconclusive: 22.4 µM [inhibitor, partial curve, poor fit] |  |
| CC(CCc1ccccc1)NC(=O)CN1CCOc2ccccc21 (stereo not given) | inconclusive: 7.94 µM [inhibitor, partial curve, poor fit] |  |
| Cc1[nH]nc2c1C(c1cn[nH]c1-c1ccc(F)cc1)C(C#N)=C(N)O2 (stereo not given) | inconclusive: 22.4 µM [inhibitor, partial curve, poor fit] |  |
| COCc1[nH]nc2c1C(C1C=CCCC1)C(C#N)=C(N)O2 (stereo not given) | inconclusive: 31.6 µM [inhibitor, partial curve, poor fit] |  |
| CN(C)c1cccc(F)c1C(=O)NC(=O)Nc1ccc(Cl)cc1 | inactive |  |
| Cc1cc(C(=O)CSc2nc3ccccc3[nH]2)c(C)n1CC1CCCO1 (stereo not given) | inconclusive: 11.2 µM [inhibitor, partial curve, poor fit] |  |
| COc1ccc(-c2cc3nc(C)c(CCC(=O)N4CCN(c5cc(C)ccc5C)CC4)c(C)n3n2)c(OC)c1 | inconclusive: 28.2 µM [inhibitor, partial curve, poor fit] |  |
| COC(=O)[C@]1(C)CC[C@@]2(C)CC[C@@]3(C)C4=CC=C5C(=CC(=O)C(O)=C5C)[C@@]4(C)CC[C@@]3(C)C2C1 (stereo not given in full) | inconclusive: 10 µM [inhibitor, partial curve, poor fit] |  |
| O=C(O)c1ccc(-c2noc(-c3ccccc3F)n2)cc1 | inconclusive: 20 µM [inhibitor, single point] |  |
| COc1ccccc1N1CCN(C(=O)C2CCCN(S(=O)(=O)c3ccc4c(c3)oc(=O)n4C)C2)CC1 (stereo not given) | inconclusive: 25.1 µM [inhibitor, partial curve, poor fit] |  |
| CCOc1ccc2nc(NC(=O)c3ccccn3)sc2c1 | active: 12.6 µM |  |
| CCCC(=O)Nc1ccc(C2C(=O)c3ccccc3C2=O)cc1 | inconclusive: 10 µM [inhibitor, partial curve, poor fit] |  |

Exported tab-delimited: entries from further up.
SMILES	Potency	activity, negative = inhibition
CC(CCc1ccccc1)NC(=O)CN1CCOc2ccccc21 (stereo not given)	inconclusive: 7.94 µM [inhibitor, partial curve, poor fit]	
Cc1[nH]nc2c1C(c1cn[nH]c1-c1ccc(F)cc1)C(C#N)=C(N)O2 (stereo not given)	inconclusive: 22.4 µM [inhibitor, partial curve, poor fit]	
COCc1[nH]nc2c1C(C1C=CCCC1)C(C#N)=C(N)O2 (stereo not given)	inconclusive: 31.6 µM [inhibitor, partial curve, poor fit]	

Next records follow:

| SMILES | Potency | activity, negative = inhibition |
| --- | --- | --- |
| O=C(Nc1ccccc1)Nc1ccc(O)c2ccccc12 | inactive |  |
| O=C(Oc1ccc(-c2nc(-c3ccccn3)no2)cc1)c1ccccc1 | active: 14.1 µM |  |
| CCc1ccc(-c2cn3nc(C)c(C)nc3n2)cc1 | inconclusive: 15.8 µM [inhibitor, single point] |  |
| Cc1sc2ncnc(N3CCC(C(=O)NNC(=O)c4ccc(F)cc4)CC3)c2c1C | inconclusive: 20 µM [inhibitor, partial curve, poor fit] |  |
| CCc1ccc(NC(=O)CSc2nc3c(sc4ccccc43)c(=O)n2CCN(CC)CC)cc1 |  | inconclusive: -30% [inhibitor] |
| Cn1c(/C(C#N)=C/c2ccncc2)nc2ccccc21 | inconclusive: 15.8 µM [inhibitor, partial curve, poor fit] |  |
| COc1ccc(CCNC(=O)c2ccc(-c3ccc([N+](=O)[O-])cc3Cl)o2)cc1OC | inconclusive: 12.6 µM [inhibitor, partial curve, poor fit] |  |
| Cc1csc(NC(=O)C2CCN(S(=O)(=O)c3ccccc3F)CC2)n1 | inconclusive: 10 µM [inhibitor, partial curve, poor fit] |  |
| CCCCn1nc(C(=O)NCC(c2cccs2)N2CCOCC2)c2ccccc2c1=O (stereo not given) | inconclusive: 31.6 µM [inhibitor, partial curve, poor fit] |  |
| COc1ccc(N2CCN(C(=O)CC(NC(N)=O)c3cccc(Oc4ccccc4)c3)CC2)cc1 (stereo not given) | inconclusive: 22.4 µM [inhibitor, single point] |  |
| CCOc1ccc(CN(C)C(=O)c2cc(S(=O)(=O)N3CCCC3)ccc2C)cc1 | inactive |  |
| C[n+]1c(-c2ccccc2)cc2c(=Cc3ccccc3)c3ccccc3n21 | inconclusive: 3.55 µM [inhibitor, full curve, poor fit] |  |
| CC(=O)c1c(C)[nH]c(C(=O)Nc2ccc(C)cn2)c1C | inconclusive: 10 µM [inhibitor, partial curve, poor fit] |  |
| COC(=O)C1=C(C)N(Cc2ccc(C)cc2)C(=O)/C1=C\c1cc(OC)c(OC)c(OC)c1 | inconclusive: 20 µM [inhibitor, partial curve, poor fit] |  |
| O=c1ccc2ccccc2c2ccccc12 | inconclusive: 12.6 µM [inhibitor, partial curve, poor fit] |  |
| CCOP(=O)(Cc1cc(C(C)=O)c(C)o1)OCC |  | inconclusive: -64.2% [inhibitor] |
| Cc1nc(Cl)c(C(=O)NC(=O)Nc2cccc(C(F)(F)F)c2)c(C)c1[N+](=O)[O-] | inconclusive: 22.4 µM [inhibitor, single point] |  |
| CCOc1ccc(NC(=O)CCc2c(C)nc3c(c(C)nn3-c3ccccc3)c2C)cc1 | inconclusive: 3.55 µM [inhibitor, partial curve] |  |
| CSc1ccc(/C=C/c2nc3ccccc3n2S(=O)(=O)c2ccc(F)c(C)c2)cc1 | active: 20 µM |  |
| COc1cc(C(=S)N2CCCC2)ccc1OS(=O)(=O)c1ccc(NC(C)=O)cc1 | inconclusive: 20 µM [inhibitor, partial curve, poor fit] |  |

| SMILES | Potency | activity, negative = inhibition |
| --- | --- | --- |
| CCOc1ccc(/C=C2\CCc3ccccc3C2=O)cc1 | active: 20 µM |  |
| Cc1ccc(/C=C/c2nc3ccccc3n2S(=O)(=O)c2ccc(Br)cc2)cc1 | inconclusive: 17.8 µM [inhibitor, single point] |  |
| Cc1cccc(Nc2nc(NCc3ccco3)c3ccccc3n2)c1 | inconclusive: 28.2 µM [inhibitor, partial curve, poor fit] |  |
| Cc1ccc(OCC(=O)Nc2ccc(N3CCN(C(=O)c4ccco4)CC3)cc2)cc1C | inconclusive: 14.1 µM [inhibitor, partial curve, poor fit] |  |
| COc1cc2c(cc1OC)CN(c1ccc([N+](=O)[O-])cc1C#N)CC2 | inconclusive: 31.6 µM [inhibitor, partial curve, poor fit] |  |
| N#Cc1ccccc1NC(=O)c1cccc(COc2ccc(Cl)cc2Cl)c1 | inconclusive: 17.8 µM [inhibitor, single point] |  |
| COc1ccc(N(C)C(=O)c2cc3c(s2)-c2ccc(Cl)cc2S(=O)(=O)C3)c(OC)c1 | inconclusive: 28.2 µM [inhibitor, partial curve, poor fit] |  |
| O=C(Nc1ccc(F)c(F)c1)c1ccc(F)c(S(=O)(=O)N2CCC3(CC2)OCCO3)c1 | inconclusive: 11.2 µM [inhibitor, partial curve] |  |
| COc1ccc(/C=N/NS(=O)(=O)c2ccccc2)cc1OC | inconclusive: 11.2 µM [inhibitor, partial curve] |  |
| O=C(CSc1nc(C2CC2)nc2ccccc12)Nc1ccccc1N1CCOCC1 | inconclusive: 25.1 µM [inhibitor, partial curve, poor fit] |  |
| O=C(Nc1cc(Sc2ccccn2)cc([N+](=O)[O-])c1)c1cccc(Cl)c1 | inconclusive: 25.1 µM [inhibitor, partial curve, poor fit] |  |
| CC(=O)NCCc1nc2ccccc2n1CCOc1ccccc1C | inconclusive: 22.4 µM [inhibitor, single point] |  |
| Cc1ccc(-c2nc3cc(Cl)ccc3o2)cc1 | inconclusive: 17.8 µM [inhibitor, single point] |  |
| COc1ccc(NC(=O)CN(C)C(=O)Cc2c(C)nc3ccccc3c2C)cc1 | inconclusive: 14.1 µM [inhibitor, partial curve, poor fit] |  |
| Cc1cc(C)n2nc(SCc3ccc(F)cc3Cl)nc2n1 | inactive |  |
| COc1cc(/C=C2/C(=O)ON=C2c2ccccc2)ccc1O | inactive |  |
| Cc1ccc(C(=O)COC(=O)c2cccc(NC(=O)c3ccc([N+](=O)[O-])cc3[N+](=O)[O-])c2)cc1 | active: 20 µM |  |
| COc1ccc(CN2CCNC(=O)C2CC(=O)N(C)Cc2ccno2)c(F)c1 (stereo not given) | inactive |  |
| COc1ccc(C)cc1NC(=O)CN(C)S(=O)(=O)c1cc(C)ccc1OC | inactive |  |
| C=CCN(c1ccccc1OC)S(=O)(=O)c1cccc(C(=O)OCC(=O)c2c(N)n(C)c(=O)n(C)c2=O)c1 | inconclusive: 39.8 µM [inhibitor, partial curve, poor fit] |  |

Reference: PubChem BioAssay AID1347131 (National Center for Advancing Translational Sciences (NCATS), 2019)
